Literature values as cited in patent US20070027175A1, “Antineoplastic activities of ellipticine and its derivatives” (priority 2005, published 2007).

Legend:
[1] = NCI in vivo screening data; cited from earlier work
[2] = test system: tumor model; conditions: 9.37 mg/kg to 75.0 mg/kg; BDF1 mice; endpoint of 60 days; cited from earlier work

COc1ccc2[nH]c3c(C)c4ccncc4c(C)c3c2c1 [NSC 69187, ellipticine-9-methoxy-]
dosages for animals surviving the toxicity of the compounds [1]: 37.5 mg/kg body weight
animals survived the tumor model and dose toxicity [2]: more than 90%
